Results taken from article PMC4923944.
No constants are given. Whether binding was seen depends on the method and setting. Binding seen in cells or lysates may run through a third protein. Some binding calls cover weakened binding; strength is not graded here. For part of these data: Sequences can lack the tags named with a protein.

Sequences of proteins named here, by UniProt entry; tags and fusion partners are left off.
UniProt P12004: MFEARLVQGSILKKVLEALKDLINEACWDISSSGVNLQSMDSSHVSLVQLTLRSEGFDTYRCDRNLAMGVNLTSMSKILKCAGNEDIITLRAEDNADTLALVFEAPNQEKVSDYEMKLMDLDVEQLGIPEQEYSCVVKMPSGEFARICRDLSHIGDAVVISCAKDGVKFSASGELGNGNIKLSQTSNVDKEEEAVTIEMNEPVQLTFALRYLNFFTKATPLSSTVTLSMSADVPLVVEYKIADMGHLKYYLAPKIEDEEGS

T1: TRAIP, endogenous (human (endogenous in 293T)) (UniProt Q9BWF2)
T1 sequence: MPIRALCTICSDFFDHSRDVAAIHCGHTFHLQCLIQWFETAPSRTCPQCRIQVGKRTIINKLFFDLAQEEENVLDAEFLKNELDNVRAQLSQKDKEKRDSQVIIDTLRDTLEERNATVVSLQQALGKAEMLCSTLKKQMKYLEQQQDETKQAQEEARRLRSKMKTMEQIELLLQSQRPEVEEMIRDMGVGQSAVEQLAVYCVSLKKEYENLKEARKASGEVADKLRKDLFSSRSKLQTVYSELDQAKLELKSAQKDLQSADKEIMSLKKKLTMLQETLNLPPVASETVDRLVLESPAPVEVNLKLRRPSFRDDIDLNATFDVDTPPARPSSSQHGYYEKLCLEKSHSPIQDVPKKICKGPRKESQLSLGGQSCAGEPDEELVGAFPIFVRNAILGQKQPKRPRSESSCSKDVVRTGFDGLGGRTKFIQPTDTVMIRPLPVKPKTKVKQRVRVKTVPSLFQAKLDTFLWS

T2: GST-TRAIP fusion protein (human) (UniProt Q9BWF2)
T2 sequence: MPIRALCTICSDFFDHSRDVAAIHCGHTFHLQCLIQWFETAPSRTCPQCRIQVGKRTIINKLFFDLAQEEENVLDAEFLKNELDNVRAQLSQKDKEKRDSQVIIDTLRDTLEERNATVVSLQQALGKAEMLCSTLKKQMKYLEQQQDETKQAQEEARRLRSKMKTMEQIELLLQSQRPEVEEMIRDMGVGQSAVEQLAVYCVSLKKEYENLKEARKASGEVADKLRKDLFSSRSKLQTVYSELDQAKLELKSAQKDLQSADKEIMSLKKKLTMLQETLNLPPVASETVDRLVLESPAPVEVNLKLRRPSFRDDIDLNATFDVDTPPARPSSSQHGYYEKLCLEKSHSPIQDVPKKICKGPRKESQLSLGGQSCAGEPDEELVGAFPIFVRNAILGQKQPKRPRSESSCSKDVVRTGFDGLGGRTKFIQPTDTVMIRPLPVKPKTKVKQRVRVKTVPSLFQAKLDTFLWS


How the values were obtained:
[1] = molecular target: T1, TRAIP, endogenous (human (endogenous in 293T)); assay: co-IP; endogenous proteins; 293T cells with or without HU (5 mM, 4 h); immunoprecipitation with anti-TRAIP sera or pre-bleed control; western blot
[2] = molecular target: T2, GST-TRAIP fusion protein (human); assay: pull-down; GST-TRAIP or GST on GST beads incubated with 293T lysate at 4 °C for 4 h; washed with NETN buffer; western blot; only the target purified
His-tagged PCNA = His-tagged PCNA (UniProt P12004); assay: pull-down; purified His-PCNA on nickel beads incubated for 4 h at 4 °C with NETN lysates of 293T cells transiently transfected with Flag-tagged TRAIP or its mutants; western blot; only the target purified

Row | binding [1] | binding [2] | binding (His-tagged PCNA) | Molecule
1 | binds | binds | – | proliferating cell nuclear antigen (PCNA), endogenous (from UniProt P12004 1-261)
2 | – | – | binds | Flag-epitope tagged TRAIP (fused with streptavidin binding peptide and S-protein tag) (protein, UniProt Q9BWF2 1-469) MPIRALCTICSDFFDHSRDVAAIHCGHTFHLQCLIQWFETAPSRTCPQCRIQVGKRTIINKLFFDLAQEEENVLDAEFLKNELDNVRAQLSQKDKEKRDSQVIIDTLRDTLEERNATVVSLQQALGKAEMLCSTLKKQMKYLEQQQDETKQAQEEARRLRSKMKTMEQIELLLQSQRPEVEEMIRDMGVGQSAVEQLAVYCVSLKKEYENLKEARKASGEVADKLRKDLFSSRSKLQTVYSELDQAKLELKSAQKDLQSADKEIMSLKKKLTMLQETLNLPPVASETVDRLVLESPAPVEVNLKLRRPSFRDDIDLNATFDVDTPPARPSSSQHGYYEKLCLEKSHSPIQDVPKKICKGPRKESQLSLGGQSCAGEPDEELVGAFPIFVRNAILGQKQPKRPRSESSCSKDVVRTGFDGLGGRTKFIQPTDTVMIRPLPVKPKTKVKQRVRVKTVPSLFQAKLDTFLWS
